Measured values from PMC6769490, “Protein Engineering of Multi-Modular Transcription Factor Alcohol Dehydrogenase Repressor 1 (Adr1p), a Tool for Dissecting In Vitro Transcription Activation” (Biomolecules, 2019).

Experiments:
[1] = molecular target: T1, His-Adr1-165 (Saccharomyces cerevisiae) (UniProt P07248); test: EMSA; settings: after Ni-NTA step, which abolished binding (preparation effect); 40 mM Na phosphate pH 7.5, 40 mM NaCl, 10% glycerol, 18 uM Zn acetate (+/- 5 mM CHAPS, DTT, spermine), 30 min 4 C; HPLC-purified: 20 mM phosphate pH 7.0, 40 mM NaCl; recombinant protein; residues 1-165; protein details: His-tag; label: 33P or none (ethidium bromide)
T1 sequence (looked up): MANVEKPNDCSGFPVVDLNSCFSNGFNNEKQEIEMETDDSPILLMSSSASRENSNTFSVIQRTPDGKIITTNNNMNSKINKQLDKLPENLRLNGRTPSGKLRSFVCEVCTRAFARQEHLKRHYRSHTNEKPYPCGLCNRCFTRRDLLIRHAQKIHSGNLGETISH

[2] = molecular target: T2, His-miniAdr1-BL del1-74,del179-418,del472-1323 (Saccharomyces cerevisiae) (UniProt P07248); test: EMSA; settings: functional but unstable; 40 mM Na phosphate pH 7.5, 40 mM NaCl, 10% glycerol, 18 uM Zn acetate (+/- 5 mM CHAPS, DTT, spermine), 30 min 4 C; HPLC-purified: 20 mM phosphate pH 7.0, 40 mM NaCl; recombinant protein; residues 75-471; protein details: C-terminal His-tag; label: 33P or none (ethidium bromide)
T2 sequence (looked up): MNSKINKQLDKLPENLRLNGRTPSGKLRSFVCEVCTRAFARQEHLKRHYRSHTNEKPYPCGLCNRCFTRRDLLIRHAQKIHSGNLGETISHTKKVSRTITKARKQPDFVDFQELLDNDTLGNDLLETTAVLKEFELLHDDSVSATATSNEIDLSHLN

[3] = molecular target: T3, miniAdr1-AL (untagged) del1-74,del158-400,del472-1323 (Saccharomyces cerevisiae) (UniProt P07248); test: EMSA; settings: with or without DTT; 40 mM Na phosphate pH 7.5, 40 mM NaCl, 10% glycerol, 18 uM Zn acetate (+/- 5 mM CHAPS, DTT, spermine), 30 min 4 C; HPLC-purified: 20 mM phosphate pH 7.0, 40 mM NaCl; recombinant protein; residues 75-471; label: 33P or none (ethidium bromide)
T3 sequence (looked up): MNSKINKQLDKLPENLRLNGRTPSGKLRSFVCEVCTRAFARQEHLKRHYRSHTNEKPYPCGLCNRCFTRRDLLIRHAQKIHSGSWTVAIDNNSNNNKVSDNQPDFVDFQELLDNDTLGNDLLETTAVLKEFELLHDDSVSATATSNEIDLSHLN

[4] = molecular target: T4, Adr1-DBD (untagged) (Saccharomyces cerevisiae) (UniProt P07248); test: SEC-HPLC; settings: 40 mM Na phosphate pH 7.5, 40 mM NaCl, 10% glycerol, 18 uM Zn acetate (+/- 5 mM CHAPS, DTT, spermine), 30 min 4 C; HPLC-purified: 20 mM phosphate pH 7.0, 40 mM NaCl; recombinant protein; residues 75-178; label: 33P or none (ethidium bromide)
T4 sequence (looked up): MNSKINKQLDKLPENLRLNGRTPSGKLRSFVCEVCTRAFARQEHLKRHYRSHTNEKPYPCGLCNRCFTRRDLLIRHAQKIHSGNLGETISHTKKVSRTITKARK

“TCCGGGCATCTCCAACTTA / CTAAGTTGGAGATGCCCGG [Half site UAS1]”: no binding [1]; binds [2]; binds [3]. “TCCGGGCATCTCCAACTTA / CTAAGTTGGAGATGCCCGG [Half site UAS1]”: binds [4].

For some of these results: Negatives hold for the conditions tested. Tags and fusion partners may be left off the protein sequences shown. For some of these results: Construct, isoform or probe ends are uncertain for at least one entry. For some of these results: At least one verdict was read from the data and is not stated in words by the source.
